Drawing on paper doi:10.1101/2021.04.01.438103, this text covers binding for two molecules.

For the assay, the target named is ELKS-1::TurboID::mNeongreen fusion protein (elks-1(syb1710) knock-in) (C. elegans). Briefly: proximity labelling.

Results are given in words; binding and its absence hold for the method and conditions named. Binding seen in cells or lysates may run through a third protein. Here binding means that the protein was enriched with, or labelled near, the bait; the list need not be complete.

B1: SAD-1/BRSK1 (protein, UniProt Q19469 1-914)
chain: MFEALKEVLGEINSKLAAVNNELSSKIMSENIVSTRPVAQAQYCGPYKLEKTLGKGQTGLVKTGTHCITGRKVAIKIVNKEKLSESVLQKVEREIAIMKLIEHPHVLHLYDVYENKKYLYLLLEHVSGGELFDYLVRKGRLMSKEARKFFRQIISALDFCHAHNICHRDLKPENLLLDERNNIKVADFGMASLQVEGSMLETSCGSPHYACPEVIRGEKYDGRKADVWSCGVILYALLVGALPFDDDNLRNLLEKVKRGVFHIPHFVPADVQSLLRAMIEVDPGKRYSLADVFKHPWVSGTTKADPELELPMSQVVQTHVIPGEDSIDPDVLRHMNCLGCFKDKQKLINELLSPKHNTEKMVYFLLLDRKRRRPAQEDDTEIVLRGAAQNNDPPKKRTDSSRTSRYPMGSIADGSPINPRKTYGRNQKSGRHSSLGGSPTESPRSSTRDLFGSSSSGSYSARAGEDRDRGRSASRSTNSYHYYTQPVDPQTLAEAARHVRDAQERRESRDSGRGSSRKESKDRSDKSASSSSCKNDASSTSSVPHKYSPPSVMSESVVVSSSTMNSTNSSTNSLIAGNSQTSIGSTSGPWRSKLNNIKNSFLGTPRFHRRKMSNGTAESDSEDSQMIDTTDLVKKSWFGSLASSMSVERDDTHCVPVQGKTLNSIKAELIRAFLQIHELSHSVVGQNCFRVEYKRGPTVGGSVFSRGIKMNVDIIPSPQQVVIAGETPTYVVQFVLLAGPVRRFKRLVEHLSAILQNSTQQRADRQQQAALMVRPRRLSDSSVGSACSDSESNASSINMIARHSDKTETTSATSSDPYGPSPSMRSVGSGTANSYKSPTPHRRNTTAVTASSSSASNRYGPSSSSSGSYSNNADYSYHPEYSQRSNGSSAPKNQYSPGSQRSFAFSMFNKADKV
For the molecule B1, the binding entry is recorded as “binds”.

B2: SYD-1/SYDE1 (protein, UniProt Q86NH1 1-987)
chain: MLISTSLKFLTMLTSNGFGGTNPPKGMPYPPTYLYTEEPQNECCCCWLCRLLCCCSPVDQTASRSRMNASQPPPGGGGRLPDEVFRKITAVDQGQSTLTQSGIQGLSARTLSSEPRGDLVFQLVEIIKKPGQSLGLYLREGNGKDRSDGVFVSRFGDNSELAKYGEVMRPGDEILTINNVEVSMMSIDDVVLILSIPRRLLLRIRYSKSMRHEIISSRSRESERPVVVFHKYDDRRDSETNAPILSQPTSTANTWLGKKSRQQMEEMRNATTSSTLRTHASTSSPRNHFAPRLVNGHSHSIGVPSASTTSHDHQYQRFASEPSDSVSRTARVPPPRLASATVRRTESFNSAPGVSTSAPMYTLPRSSTAVPPPDILGSIPYSARDPLMRSSADLPYDPMTGRLSSSVPTDPLLSRSLCSPILPRTLRQANDSNKSNSLPRRRIMTGGRNVKWRNDVVSTSDLCGEESDGAISAPEYSSPPFSRLTQQQQFRLSNGSPGRTVNDIFSAAEYRNWAGPYDPRGMYGPFPPGQRATRWSHTYGEQRAPRTSSLPGRTVLAQSLVGSPVLPRHPPPIVQDRPSAVFDRYHVSPLMNRRAPLRAAGPGINVDRLSVSSLTGILYVHIVEGRGLKIPEKQKGLTEEMYCVLEVDEQHRARTGVSTIEQKFKWRETFHIDVVNATVSNFFVYSWHPQFRHKLCHKGSLKLLEAFVVDQLNDDRVFALNLEPRGQLIVRIGFHDLQAVFRRTVNPRLNGVFGISLSRLVQRERRDTPIVLTRLIQEIEKRGVDYSGLYVLCGSVEKKKMLRAELESNPLGTELAAESIPDTNVIACLIKDFLRELPEPLISPQIHGMLLEAASVALPNDVQTNRHLVLKIIDCLQLSAKNCLLLVLDHLSTVLCSSPHNGLTPTRLSLIFAPLLFFCLDTFSPYTISPTSKMAAVRTLDINQASSSLQMILSIWPSRVNSESGSDSPATTCQKGGVIAYVSESQC
As for B2, the binding entry is given as “binds”.
